The results in this text go back to publication PMC5964324.

Protein sequences, listed by entry. Tags and fused reporters are not part of them. Lines headed by an entry give the natural chain unless they say otherwise; changes in a name come on top. Residues count along the entry.
UniProt P54578: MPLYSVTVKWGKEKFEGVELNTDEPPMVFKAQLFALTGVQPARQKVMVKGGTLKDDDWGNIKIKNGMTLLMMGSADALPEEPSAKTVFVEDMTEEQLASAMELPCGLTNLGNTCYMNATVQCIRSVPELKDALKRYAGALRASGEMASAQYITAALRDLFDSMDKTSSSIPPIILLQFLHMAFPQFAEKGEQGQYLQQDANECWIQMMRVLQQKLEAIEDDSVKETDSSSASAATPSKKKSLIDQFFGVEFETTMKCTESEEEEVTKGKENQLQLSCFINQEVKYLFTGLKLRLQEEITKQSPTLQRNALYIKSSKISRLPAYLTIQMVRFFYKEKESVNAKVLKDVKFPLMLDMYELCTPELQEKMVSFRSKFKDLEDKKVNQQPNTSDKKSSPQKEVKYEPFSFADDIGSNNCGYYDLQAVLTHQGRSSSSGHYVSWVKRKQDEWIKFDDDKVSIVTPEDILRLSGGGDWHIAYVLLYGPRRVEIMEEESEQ
GST-USP: residues 105-483 of P54578
UniProt Q13200: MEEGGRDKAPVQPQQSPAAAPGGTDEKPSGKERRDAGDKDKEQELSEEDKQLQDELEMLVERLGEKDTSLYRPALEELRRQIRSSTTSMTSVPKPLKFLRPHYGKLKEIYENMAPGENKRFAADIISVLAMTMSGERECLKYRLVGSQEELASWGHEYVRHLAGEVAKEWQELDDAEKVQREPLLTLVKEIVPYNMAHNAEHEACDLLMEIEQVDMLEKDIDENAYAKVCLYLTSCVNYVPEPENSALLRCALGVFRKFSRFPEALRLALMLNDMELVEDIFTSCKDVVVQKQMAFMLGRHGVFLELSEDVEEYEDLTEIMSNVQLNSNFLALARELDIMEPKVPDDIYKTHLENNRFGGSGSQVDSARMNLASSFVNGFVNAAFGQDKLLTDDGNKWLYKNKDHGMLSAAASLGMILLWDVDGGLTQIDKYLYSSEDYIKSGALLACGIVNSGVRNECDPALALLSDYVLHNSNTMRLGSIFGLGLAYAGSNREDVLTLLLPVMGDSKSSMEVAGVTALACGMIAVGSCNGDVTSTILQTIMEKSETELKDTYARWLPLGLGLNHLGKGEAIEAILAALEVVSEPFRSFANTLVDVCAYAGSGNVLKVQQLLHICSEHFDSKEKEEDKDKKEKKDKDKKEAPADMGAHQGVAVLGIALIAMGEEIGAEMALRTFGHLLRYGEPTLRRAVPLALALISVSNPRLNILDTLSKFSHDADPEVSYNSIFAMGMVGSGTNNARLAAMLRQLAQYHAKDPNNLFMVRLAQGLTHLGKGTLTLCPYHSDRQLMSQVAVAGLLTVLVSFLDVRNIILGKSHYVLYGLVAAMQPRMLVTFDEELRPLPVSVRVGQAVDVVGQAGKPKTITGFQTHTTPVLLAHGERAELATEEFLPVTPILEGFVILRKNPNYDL

These are yes or no findings as the source states them, for the method shown. For part of these data: Binding seen in cells or lysates may run through a third protein. Some entries that bind do so weakly or less than the wild type. Sequences can lack the tags named with a protein.

One assay has as its target T1, Flag-TRIM11 (UniProt Q96F44).
T1 sequence: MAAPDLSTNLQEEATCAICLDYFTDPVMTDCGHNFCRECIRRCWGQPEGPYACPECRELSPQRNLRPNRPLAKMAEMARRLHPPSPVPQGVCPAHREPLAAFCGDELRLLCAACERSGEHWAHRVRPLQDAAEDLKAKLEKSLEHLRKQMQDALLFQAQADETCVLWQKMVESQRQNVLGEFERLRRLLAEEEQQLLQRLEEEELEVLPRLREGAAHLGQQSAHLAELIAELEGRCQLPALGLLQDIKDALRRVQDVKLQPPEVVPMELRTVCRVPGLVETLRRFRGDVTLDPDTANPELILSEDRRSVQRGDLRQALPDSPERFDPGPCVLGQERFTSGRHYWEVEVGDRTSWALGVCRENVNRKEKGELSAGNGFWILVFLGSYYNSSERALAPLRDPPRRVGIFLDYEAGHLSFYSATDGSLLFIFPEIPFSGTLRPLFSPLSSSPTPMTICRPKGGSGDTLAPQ
In words: co-IP; cells lysed in NP-40 lysis buffer; anti-Flag (M2) or anti-HA agarose beads, or antibodies against endogenous proteins with Protein A/G agarose, 4 °C, 4 h; western blot; some panels in control and TRIM11-overexpressing or TRIM28-knockdown HCT116 cells. (Immunoblotting shows a protein as a band on a membrane.)

The target in the next assay is GST-USP (human) (UniProt P54578). In words: pull-down; in vitro; purified USP14 or Flag-TRIM11 incubated with GST proteins bound to glutathione beads (1 or 2 μg each protein), 4 °C, 4 h; washed four times with NP-40 lysis buffer; western blot; both purified.
Assay [1] concerns the target endogenous USP14 (ubiquitin-specific protease 14) (human (endogenous in HCT116)) (UniProt P54578). As to the kind of experiment: co-IP; cells lysed in NP-40 lysis buffer; anti-Flag (M2) or anti-HA agarose beads, or antibodies against endogenous proteins with Protein A/G agarose, 4 °C, 4 h; western blot; some panels in control and TRIM11-overexpressing or TRIM28-knockdown HCT116 cells.

Turning to “endogenous PSMD2 (from UniProt Q13200 1-908)”, the binding result in the assay with Flag-TRIM11 is “binds”.

B1: Flag-TRIM11 (protein, UniProt Q96F44 1-468)
chain: MAAPDLSTNLQEEATCAICLDYFTDPVMTDCGHNFCRECIRRCWGQPEGPYACPECRELSPQRNLRPNRPLAKMAEMARRLHPPSPVPQGVCPAHREPLAAFCGDELRLLCAACERSGEHWAHRVRPLQDAAEDLKAKLEKSLEHLRKQMQDALLFQAQADETCVLWQKMVESQRQNVLGEFERLRRLLAEEEQQLLQRLEEEELEVLPRLREGAAHLGQQSAHLAELIAELEGRCQLPALGLLQDIKDALRRVQDVKLQPPEVVPMELRTVCRVPGLVETLRRFRGDVTLDPDTANPELILSEDRRSVQRGDLRQALPDSPERFDPGPCVLGQERFTSGRHYWEVEVGDRTSWALGVCRENVNRKEKGELSAGNGFWILVFLGSYYNSSERALAPLRDPPRRVGIFLDYEAGHLSFYSATDGSLLFIFPEIPFSGTLRPLFSPLSSSPTPMTICRPKGGSGDTLAPQ
With B1, the figures for the binding result (with GST-USP (human); in assay [1]) were “no binding” and “binds”, respectively.
